For 1 compound, Ki results are on record in ChEMBL document CHEMBL3997848 (Bioorg Med Chem, 2017).

By UniProt entry, the sequences of proteins in these tests, tags left out.
UniProt A3QJX7, whole entry: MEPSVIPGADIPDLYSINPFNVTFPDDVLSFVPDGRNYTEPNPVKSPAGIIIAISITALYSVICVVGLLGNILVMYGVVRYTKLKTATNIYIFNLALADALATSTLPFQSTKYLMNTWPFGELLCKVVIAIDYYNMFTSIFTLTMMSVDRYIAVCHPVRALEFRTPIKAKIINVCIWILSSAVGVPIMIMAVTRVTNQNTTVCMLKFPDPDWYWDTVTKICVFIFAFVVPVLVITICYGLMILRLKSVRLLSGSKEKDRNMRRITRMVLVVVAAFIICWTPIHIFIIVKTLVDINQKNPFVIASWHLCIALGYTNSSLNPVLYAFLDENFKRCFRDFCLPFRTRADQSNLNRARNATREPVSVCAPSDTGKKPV
UniProt B3DH72, whole entry: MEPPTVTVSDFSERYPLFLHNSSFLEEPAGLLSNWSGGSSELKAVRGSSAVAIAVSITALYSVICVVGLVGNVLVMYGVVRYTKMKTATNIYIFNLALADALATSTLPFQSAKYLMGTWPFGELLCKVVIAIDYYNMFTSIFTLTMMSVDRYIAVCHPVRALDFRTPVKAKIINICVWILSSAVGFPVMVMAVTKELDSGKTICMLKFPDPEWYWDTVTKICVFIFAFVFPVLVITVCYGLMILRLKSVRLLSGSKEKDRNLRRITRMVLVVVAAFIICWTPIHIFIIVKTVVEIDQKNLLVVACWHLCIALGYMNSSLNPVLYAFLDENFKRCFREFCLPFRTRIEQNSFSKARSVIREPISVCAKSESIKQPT

SMILES strings stand for the structures.

One may read the Ki as the equilibrium dissociation constant of an inhibitor or competing ligand from its target.

In experiment [1] the target is Opioid receptor homologue (Danio rerio, UniProt A3QJX7). Put plainly: Displacement of [3H]DPN from zebrafish delta 1a opioid receptor expressed in HEK293 cell membranes after 1 hr by scintillation counting method. (In general: Displacement assays read how much labelled ligand stays bound in the presence of the test substance.)
Experiment [2] has as its target Opioid receptor, delta 1b (Danio rerio, UniProt B3DH72). Description: Displacement of [3H]DPN from zebrafish delta 1b opioid receptor expressed in HEK293 cell membranes after 4 hrs by scintillation counting method.

Consider `CN1CC[C@]23c4c5ccc(O)c4O[C@H]2[C@@H](O)C=C[C@H]3[C@H]1C5` [MORPHINE], for which the Ki in experiment [1] stood at 223 nM; in experiment [2] it was 1430 nM.
